Laboratory results from article PMC8986801, “Activation of the essential kinase PDK1 by phosphoinositide-driven trans-autophosphorylation” (Nature Communications, 2022).
No constants are given. Whether binding was seen depends on the method and setting. For part of these data: Sequences can lack the tags named with a protein.

Experiments:
Test in all cases: SEC-MALS; 50 μl of purified protein injected on Superdex 200 10/300; 50 mM Tris pH 7.5, 100 mM NaCl, 2% glycerol, 1 mM TCEP, 2 mM MgCl2, ±1 mM ATP; self-association (monomer or dimer); both purified
[1] = target: PDK1^SKD S241A (short kinase domain, residues 73-359, S241A) (human) (UniProt O15530)
[2] = target: PDK1^FL S241A (near-full-length PDK1, residues 73-556, S241A) (human) (UniProt O15530)
[3] = target: PDK1^PIF-SKD S241A (PIFtide fused through a G5 linker to the N-terminus of the short kinase domain, S241A) (UniProt O15530)

B1: PDK1^SKD S241A (short kinase domain, residues 73-359, S241A) (domain or fragment, UniProt O15530 73-359)
chain: QPRKKRPEDFKFGKILGEGSFSTVVLARELATSREYAIKILEKRHIIKENKVPYVTRERDVMSRLDHPFFVKLYFTFQDDEKLYFGLSYAKNGELLKYIRKIGSFDETCTRFYTAEIVSALEYLHGKGIIHRDLKPENILLNEDMHIQITDFGTAKVLSPESKQARANAFVGTAQYVSPELLTEKSACKSSDLWALGCIIYQLVAGLPPFRAGNEYLIFQKIIKLEYDFPEKFFPKARDLVEKLLVLDATKRLGCEEMEGYGPLKAHPFFESVTWENLHQQTPPKLT
B1 was tested, and the binding [1] was “no binding (tested: 2 μM)”.

B2: PDK1^FL S241A (near-full-length PDK1, residues 73-556, S241A) (domain or fragment, UniProt O15530 73-556)
chain: QPRKKRPEDFKFGKILGEGSFSTVVLARELATSREYAIKILEKRHIIKENKVPYVTRERDVMSRLDHPFFVKLYFTFQDDEKLYFGLSYAKNGELLKYIRKIGSFDETCTRFYTAEIVSALEYLHGKGIIHRDLKPENILLNEDMHIQITDFGTAKVLSPESKQARANAFVGTAQYVSPELLTEKSACKSSDLWALGCIIYQLVAGLPPFRAGNEYLIFQKIIKLEYDFPEKFFPKARDLVEKLLVLDATKRLGCEEMEGYGPLKAHPFFESVTWENLHQQTPPKLTAYLPAMSEDDEDCYGNYDNLLSQFGCMQVSSSSSSHSLSASDTGLPQRSGSNIEQYIHDLDSNSFELDLQFSEDEKRLLLEKQAGGNPWHQFVENNLILKMGPVDKRKGLFARRRQLLLTEGPHLYYVDPVNKVLKGEIPWSQELRPEAKNFKTFFVHTPNRTYYLMDPSGNAHKWCRKIQEVWRQRYQSHPDAAVQ
In the case of B2, the binding [2] is reported as “no binding (tested: 2 μM)”.

B3: PDK1^PIF-SKD S241A (PIFtide fused through a G5 linker to the N-terminus of the short kinase domain, S241A) (protein, UniProt O15530 73-359)
chain: QEMFRDFDYIADWCGGGGGQPRKKRPEDFKFGKILGEGSFSTVVLARELATSREYAIKILEKRHIIKENKVPYVTRERDVMSRLDHPFFVKLYFTFQDDEKLYFGLSYAKNGELLKYIRKIGSFDETCTRFYTAEIVSALEYLHGKGIIHRDLKPENILLNEDMHIQITDFGTAKVLSPESKQARANAFVGTAQYVSPELLTEKSACKSSDLWALGCIIYQLVAGLPPFRAGNEYLIFQKIIKLEYDFPEKFFPKARDLVEKLLVLDATKRLGCEEMEGYGPLKAHPFFESVTWENLHQQTPPKLT
B3 was tested, and the binding [3] was “no binding (tested: 5.6 mg/ml injected (50 μl))”.
